Patent publication US20130261045A1, “GREEN TEA POLYPHENOL ALPHA SECRETASE ENHANCERS AND METHODS OF USE” (UNIVERSITY OF SOUTH FLORIDA, priority 2005, published 2013)
Some of these results come from one statement about several compounds together.

Key:
[1] = tested on: Aβ generation; assay: Aβ ELISA, conditioned media of APP-transfected N2a cells (Example 1); type: cell-based, murine; settings: 80 μM; SweAPP N2a cells
Description: (§1) Aβ1-40 and 1-42 peptides were analyzed in the conditioned media from SweAPP N2a cells (FIGS. 1A, 1C, 1D) and transgenic APPsw mouse-derived primary neuronal cells (FIG. 1B) by ELISA (n=3 for each condition).
(§2) TAPI-1, β and γ-secretase inhibitors were obtained from Calbiochem (San Diego, Calif.). Green tea extract (75% polyphenols) was obtained from the Vitamin Shoppe™ (North Bergen, N.J.).
(§3) Cultured cells were lysed in ice-cold-lysis buffer (20 mM Tris, pH 7.5, 150 mM NaCl, 1 mM EDTA, 1 mM EGTA, 1% v/v Triton X-100, 2.5 mM sodium pyropgosphate, 1 mM β-glycerolphosphate, 1 mM Na3VO4, 1 μg/mL leupeptin, 1 mM PMSF) as previously described (Tan et al., 2002). Mouse brains were isolated under sterile conditions on ice and placed in ice-cold lysis buffer. […] Total Aβ1-42 species were detected by acid extraction of brain homogenates in 5 M guanidine buffer (ret), followed by a 1:10 dilution in lysis buffer. Soluble Aβ1-42 was directly detected in cultured cell lysates or brain homogenates prepared with lysis buffer described above by a 1:4 or 1:10 dilution, respectively. Aβ1-42 was quantified in these samples using the Aβ1-42 ELISA kit (BioSource, Camarillo, Calif.) in accordance with the manufacturer's instructions, except that standards included a 0.5 M guanidine buffer. […]

[2] = tested on: Aβ generation; assay: Aβ ELISA, transgenic APPsw mouse-derived primary neuronal cells (Example 1); type: cell-based; settings: 80 μM; primary cultured cells
Description: as §1, §2, §3

**Q.** With (−)-catechin as the substance, how does the “promotion of Aβ production” value [1] read?
**A.** 20-30%

**Q.** And the “promotion of Aβ production” value [2]?
**A.** 10-15%
